Experimental findings from PMC12690290 are described below.

By UniProt entry, the sequences of proteins in these tests, tags left out. Where a name states a change or a piece, a line headed by the entry shows the natural chain unless it says otherwise. Residues count along the entry.
UniProt P02787, residues 20-698: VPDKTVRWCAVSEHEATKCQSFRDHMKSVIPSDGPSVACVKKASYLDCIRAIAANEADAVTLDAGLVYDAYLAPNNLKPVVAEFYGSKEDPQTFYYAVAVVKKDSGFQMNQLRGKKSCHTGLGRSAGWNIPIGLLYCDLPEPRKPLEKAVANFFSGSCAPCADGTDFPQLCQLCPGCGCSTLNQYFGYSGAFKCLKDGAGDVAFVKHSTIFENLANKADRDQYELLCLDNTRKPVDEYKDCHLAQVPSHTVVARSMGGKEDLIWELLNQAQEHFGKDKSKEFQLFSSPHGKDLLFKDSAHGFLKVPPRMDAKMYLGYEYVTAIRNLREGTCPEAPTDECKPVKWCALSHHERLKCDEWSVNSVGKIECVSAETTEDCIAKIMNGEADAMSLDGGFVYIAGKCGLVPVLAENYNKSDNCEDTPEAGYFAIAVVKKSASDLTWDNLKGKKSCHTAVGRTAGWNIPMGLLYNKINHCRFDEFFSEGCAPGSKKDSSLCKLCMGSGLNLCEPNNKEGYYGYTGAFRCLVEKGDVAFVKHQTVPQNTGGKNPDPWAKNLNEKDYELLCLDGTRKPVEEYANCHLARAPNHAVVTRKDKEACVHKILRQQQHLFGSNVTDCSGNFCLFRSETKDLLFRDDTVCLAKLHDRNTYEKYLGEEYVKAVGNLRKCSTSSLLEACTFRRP
UniProt P30533, residues 35-357: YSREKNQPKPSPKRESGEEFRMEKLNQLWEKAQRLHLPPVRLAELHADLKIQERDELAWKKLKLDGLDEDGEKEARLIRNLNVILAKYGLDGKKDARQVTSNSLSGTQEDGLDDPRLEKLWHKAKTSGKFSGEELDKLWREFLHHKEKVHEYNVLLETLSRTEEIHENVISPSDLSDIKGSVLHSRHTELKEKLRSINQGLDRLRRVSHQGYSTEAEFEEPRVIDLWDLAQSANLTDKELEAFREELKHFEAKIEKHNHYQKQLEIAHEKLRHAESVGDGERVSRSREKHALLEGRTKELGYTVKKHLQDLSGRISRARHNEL
UniProt P54105: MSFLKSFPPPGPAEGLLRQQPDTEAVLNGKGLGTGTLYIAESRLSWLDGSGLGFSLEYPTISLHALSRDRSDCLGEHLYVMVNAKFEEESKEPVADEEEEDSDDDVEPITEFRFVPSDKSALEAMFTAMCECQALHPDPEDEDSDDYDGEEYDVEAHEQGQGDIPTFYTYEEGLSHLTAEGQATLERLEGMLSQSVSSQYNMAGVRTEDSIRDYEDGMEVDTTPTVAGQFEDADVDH
UniProt P02647, residues 19-267: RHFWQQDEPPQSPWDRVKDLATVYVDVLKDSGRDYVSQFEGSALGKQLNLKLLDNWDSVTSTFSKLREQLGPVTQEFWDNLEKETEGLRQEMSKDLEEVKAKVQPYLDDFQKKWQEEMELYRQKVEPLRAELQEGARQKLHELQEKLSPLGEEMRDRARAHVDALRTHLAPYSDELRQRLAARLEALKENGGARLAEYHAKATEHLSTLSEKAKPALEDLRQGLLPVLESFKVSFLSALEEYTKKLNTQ
UniProt Q9UHY7: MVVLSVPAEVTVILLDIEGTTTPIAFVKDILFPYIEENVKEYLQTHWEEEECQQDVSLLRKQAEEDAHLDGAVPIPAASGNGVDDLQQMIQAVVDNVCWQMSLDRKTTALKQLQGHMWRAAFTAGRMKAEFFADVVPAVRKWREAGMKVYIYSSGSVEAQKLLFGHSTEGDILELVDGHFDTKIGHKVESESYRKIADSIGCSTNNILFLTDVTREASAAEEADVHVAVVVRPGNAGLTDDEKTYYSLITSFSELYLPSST
UniProt P19474: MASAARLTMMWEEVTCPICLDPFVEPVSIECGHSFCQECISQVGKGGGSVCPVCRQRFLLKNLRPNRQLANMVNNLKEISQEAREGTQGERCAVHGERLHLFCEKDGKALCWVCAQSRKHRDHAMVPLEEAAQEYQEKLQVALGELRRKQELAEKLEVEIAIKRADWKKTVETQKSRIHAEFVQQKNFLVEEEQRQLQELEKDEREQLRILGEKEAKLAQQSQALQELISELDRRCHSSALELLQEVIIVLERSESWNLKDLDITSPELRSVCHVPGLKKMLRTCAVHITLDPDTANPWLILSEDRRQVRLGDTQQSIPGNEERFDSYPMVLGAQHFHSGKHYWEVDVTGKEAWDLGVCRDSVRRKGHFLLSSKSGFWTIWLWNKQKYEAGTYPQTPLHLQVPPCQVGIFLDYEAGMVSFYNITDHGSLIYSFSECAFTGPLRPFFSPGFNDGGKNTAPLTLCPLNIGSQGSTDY
UniProt P28062: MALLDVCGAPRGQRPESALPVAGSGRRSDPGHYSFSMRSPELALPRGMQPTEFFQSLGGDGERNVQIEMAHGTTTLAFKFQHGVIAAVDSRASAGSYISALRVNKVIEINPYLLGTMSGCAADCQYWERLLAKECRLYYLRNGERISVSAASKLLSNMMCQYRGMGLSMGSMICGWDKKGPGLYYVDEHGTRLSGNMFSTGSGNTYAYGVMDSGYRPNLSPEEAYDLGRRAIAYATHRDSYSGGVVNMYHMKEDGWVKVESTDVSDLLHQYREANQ

These are yes or no findings as the source states them, for the method shown. Binding seen in cells or lysates may run through a third protein. These calls come from enrichment with a bait or labelling near it, and not all partners need be listed.

Experiment [1] concerns the target T1, mesoheme–rabbit hemopexin (1:1 heme–HPX complex) (rabbit) (UniProt P20058).
T1 sequence: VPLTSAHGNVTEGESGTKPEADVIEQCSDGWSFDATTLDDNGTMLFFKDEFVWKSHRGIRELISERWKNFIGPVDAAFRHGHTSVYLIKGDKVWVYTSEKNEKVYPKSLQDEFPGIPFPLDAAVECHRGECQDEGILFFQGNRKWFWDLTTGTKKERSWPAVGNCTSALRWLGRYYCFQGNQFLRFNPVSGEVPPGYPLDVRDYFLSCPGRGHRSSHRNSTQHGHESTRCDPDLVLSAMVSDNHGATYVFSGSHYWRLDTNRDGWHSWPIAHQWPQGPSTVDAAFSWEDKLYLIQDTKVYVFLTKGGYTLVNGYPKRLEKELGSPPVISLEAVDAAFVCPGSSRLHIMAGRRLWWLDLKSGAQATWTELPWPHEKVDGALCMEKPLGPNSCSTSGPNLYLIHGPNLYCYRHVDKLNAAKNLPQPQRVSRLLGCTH
The experiment can be described thus: affinity purification with mass spectrometry; heme–HPX or holo-human Tf Affi-Gel 15 against ovalbumin Affi-Gel 15; HepG2 whole-cell extracts (0.5% Triton X-100, HEPES pH 7.4, 150 mM NaCl); 2-fold or greater over the negative control counted as specifically bound; only the target purified.

Experiment [2] concerns the target holo-human transferrin (human) (UniProt P02787). The experiment is described as above.

On to “LRP1 receptor-associated protein (RAP), endogenous (from UniProt P30533 35-357)”, for which the binding entry in experiment [1] is “binds”.
The same measure, in the same setting: in the case of “Chloride nucleotide-sensitive channel 1A (from UniProt P54105 1-237)” it was “binds”.
Still for that read-out and setting: to “Apolipoprotein A-1 (from UniProt P02647 19-267)” belongs “binds”; to “Enolase-phosphatase I (from UniProt Q9UHY7 1-261) (enzyme)”, “binds”.
Turning to “Cathepsin H (human (endogenous in HepG2)) (enzyme)”, in experiment [1], the binding entry is recorded as “binds”.
Take “Tripartite motif-containing protein 21 (from UniProt P19474 1-475)”: the binding result in experiment [1] and in experiment [2] was “binds” each time.
As for “Proteasome subunit βtype-8 (from UniProt P28062)”, the binding entry in experiment [1] is “binds”.

B1: Cytochrome c oxidase subunit family member (protein, UniProt Q5JTJ3 1-125)
chain: MGPGGPLLSPSRGFLLCKTGWHSNRLLGDCGPHTPVSTALSFIAVGMAAPSMKERQVCWGARDEYWKCLDENLEDASQCKKLRSSFESSCPQQWIKYFDKRRDYLKFKEKFEAGQFEPSETTAKS
On to B1, for which the binding result in experiment [1] was “binds”.

B2: Isocitrate dehydrogenase (NAD+) subunit alpha (enzyme, UniProt P50213 28-366)
chain: TGGVQTVTLIPGDGIGPEISAAVMKIFDAAKAPIQWEERNVTAIQGPGGKWMIPSEAKESMDKNKMGLKGPLKTPIAAGHPSMNLLLRKTFDLYANVRPCVSIEGYKTPYTDVNIVTIRENTEGEYSGIEHVIVDGVVQSIKLITEGASKRIAEFAFEYARNNHRSNVTAVHKANIMRMSDGLFLQKCREVAESCKDIKFNEMYLDTVCLNMVQDPSQFDVLVMPNLYGDILSDLCAGLIGGLGVTPSGNIGANGVAIFESVHGTAPDIAGKDMANPTALLLSAVMMLRHMGLFDHAARIEAACFATIKDGKSLTKDLGGNAKCSDFTEEICRRVKDLD
B2: the binding entry in experiment [2] is recorded as “binds”.

B3: Basic leucine zipper and W2 domain containing protein 2 (protein, UniProt Q9Y6E2 1-419)
chain: MNKHQKPVLTGQRFKTRKRDEKEKFEPTVFRDTLVQGLNEAGDDLEAVAKFLDSTGSRLDYRRYADTLFDILVAGSMLAPGGTRIDDGDKTKMTNHCVFSANEDHETIRNYAQVFNKLIRRYKYLEKAFEDEMKKLLLFLKAFSETEQTKLAMLSGILLGNGTLPATILTSLFTDSLVKEGIAASFAVKLFKAWMAEKDANSVTSSLRKANLDKRLLELFPVNRQSVDHFAKYFTDAGLKELSDFLRVQQSLGTRKELQKELQERLSQECPIKEVVLYVKEEMKRNDLPETAVIGLLWTCIMNAVEWNKKEELVAEQALKHLKQYAPLLAVFSSQGQSELILLQKVQEYCYDNIHFMKAFQKIVVLFYKADVLSEEAILKWYKEAHVAKGKSVFLDQMKKFVEWLQNAEEESESEGEEN
As to B3, in experiment [2], the binding result is “binds”.

B4: Gamma glutamyl hydrolase (enzyme, UniProt Q92820 25-318)
chain: RPHGDTAKKPIIGILMQKCRNKVMKNYGRYYIAASYVKYLESAGARVVPVRLDLTEKDYEILFKSINGILFPGGSVDLRRSDYAKVAKIFYNLSIQSFDDGDYFPVWGTCLGFEELSLLISGECLLTATDTVDVAMPLNFTGGQLHSRMFQNFPTELLLSLAVEPLTANFHKWSLSVKNFTMNEKLKKFFNVLTTNTDGKIEFISTMEGYKYPVYGVQWHPEKAPYEWKNLDGISHAPNAVKTAFYLAEFFVNEARKNNHHFKSESEEEKALIYQFSPIYTGNISSFQQCYIFD
On to B4, for which, in experiment [2], the binding entry was “binds”.

B5: F-Box protein 2 (protein, UniProt Q9UK22 1-296)
chain: MDGDGDPESVGQPEEASPEEQPEEASAEEERPEDQQEEEAAAAAAYLDELPEPLLLRVLAALPAAELVQACRLVCLRWKELVDGAPLWLLKCQQEGLVPEGGVEEERDHWQQFYFLSKRRRNLLRNPCGEEDLEGWCDVEHGGDGWRVEELPGDSGVEFTHDESVKKYFASSFEWCRKAQVIDLQAEGYWEELLDTTQPAIVVKDWYSGRSDAGCLYELTVKLLSEHENVLAEFSSGQVAVPQDSDGGGWMEISHTFTDYGPGVRFVRFEHGGQDSVYWKGWFGARVTNSSVWVEP
B5: the binding result in experiment [1] was “binds”.

B6: Nuclear FMR1 interacting protein 2 (protein, UniProt Q7Z417 1-695)
chain: MEEKPGQPQPQHHHSHHHPHHHPQQQQQQPHHHHHYYFYNHSHNHHHHHHHQQPHQYLQHGAEGSPKAQPKPLKHEQKHTLQQHQETPKKKTGYGELNGNAGEREISLKNLSSDEATNPISRVLNGNQQVVDTSLKQTVKANTFGKAGIKTKNFIQKNSMDKKNGKSYENKSGENQSVDKSDTIPIPNGVVTNNSGYITNGYMGKGADNDGSGSESGYTTPKKRKARRNSAKGCENLNIVQDKIMQQETSVPTLKQGLETFKPDYSEQKGNRVDGSKPIWKYETGPGGTSRGKPAVGDMLRKSSDSKPGVSSKKFDDRPKGKHASAVASKEDSWTLFKPPPVFPVDNSSAKIVPKISYASKVKENLNKTIQNSSVSPTSSSSSSSSTGETQTQSSSRLSQVPMSALKSVTSANFSNGPVLAGTDGNVYPPGGQPLLTTAANTLTPISSGTDSVLQDMSLTSAAVEQIKTSLFIYPSNMQTMLLSTAQVDLPSQTDQQNLGDIFQNQWGLSFINEPSAGPETVTGKSSEHKVMEVTFQGEYPATLVSQGAEIIPSGTEHPVFPKAYELEKRTSPQVLGSILKSGTTSESGALSLEPSHIGDLQKADTSSQGALVFLSKDYEIESQNPLASPTNTLLGSAKEQRYQRGLERNDSWGSFDLRAAIVYHTKEMESIWNLQKQDPKRIITYNEAMDSPDQ
B6: the binding entry in experiment [1] is given as “binds”.

B7: Peptide deformylase (enzyme, UniProt Q9HBH1 40-243)
chain: EGPALRRSYWRHLRRLVLGPPEPPFSHVCQVGDPVLRGVAAPVERAQLGGPELQRLTQRLVQVMRRRRCVGLSAPQLGVPRQVLALELPEALCRECPPRQRALRQMEPFPLRVFVNPSLRVLDSRLVTFPEGCESVAGFLACVPRFQAVQISGLDPNGEQVVWQASGWAARIIQHEMDHLQGCLFIDKMDSRTFTNVYWMKVND
With B7, in experiment [1], the binding entry is on record as “binds”.

B8: DEP domain containing 1 (protein, UniProt Q5TB30 1-811)
chain: MESQGVPPGPYRATKLWNEVTTSFRAGMPLRKHRQHFKKYGNCFTAGEAVDWLYDLLRNNSNFGPEVTRQQTIQLLRKFLKNHVIEDIKGRWGSENVDDNNQLFRFPATSPLKTLPRRYPELRKNNIENFSKDKDSIFKLRNLSRRTPKRHGLHLSQENGEKIKHEIINEDQENAIDNRELSQEDVEEVWRYVILIYLQTILGVPSLEEVINPKQVIPQYIMYNMANTSKRGVVILQNKSDDLPHWVLSAMKCLANWPRSNDMNNPTYVGFERDVFRTIADYFLDLPEPLLTFEYYELFVNILVVCGYITVSDRSSGIHKIQDDPQSSKFLHLNNLNSFKSTECLLLSLLHREKNKEESDSTERLQISNPGFQERCAKKMQLVNLRNRRVSANDIMGGSCHNLIGLSNMHDLSSNSKPRCCSLEGIVDVPGNSSKEASSVFHQSFPNIEGQNNKLFLESKPKQEFLLNLHSEENIQKPFSAGFKRTSTLTVQDQEELCNGKCKSKQLCRSQSLLLRSSTRRNSYINTPVAEIIMKPNVGQGSTSVQTAMESELGESSATINKRLCKSTIELSENSLLPASSMLTGTQSLLQPHLERVAIDALQLCCLLLPPPNRRKLQLLMRMISRMSQNVDMPKLHDAMGTRSLMIHTFSRCVLCCAEEVDLDELLAGRLVSFLMDHHQEILQVPSYLQTAVEKHLDYLKKGHIENPGDGLFAPLPTYSYCKQISAQEFDEQKVSTSQAAIAELLENIIKNRSLPLKEKRKKLKQFQKEYPLIYQKRFPTTESEAALFGDKPTIKQPMLILRKPKFRSLR
In the case of B8, the binding result in experiment [1] is listed as “binds”.
